From the supplement of paper PMC10032668
This is one part of the list. Only hits are listed; about a third recur on repeated control peptides.

By UniProt entry, the sequences of proteins in these tests, tags left out.
AP2A2, O94973, UniProt O94973, whole entry: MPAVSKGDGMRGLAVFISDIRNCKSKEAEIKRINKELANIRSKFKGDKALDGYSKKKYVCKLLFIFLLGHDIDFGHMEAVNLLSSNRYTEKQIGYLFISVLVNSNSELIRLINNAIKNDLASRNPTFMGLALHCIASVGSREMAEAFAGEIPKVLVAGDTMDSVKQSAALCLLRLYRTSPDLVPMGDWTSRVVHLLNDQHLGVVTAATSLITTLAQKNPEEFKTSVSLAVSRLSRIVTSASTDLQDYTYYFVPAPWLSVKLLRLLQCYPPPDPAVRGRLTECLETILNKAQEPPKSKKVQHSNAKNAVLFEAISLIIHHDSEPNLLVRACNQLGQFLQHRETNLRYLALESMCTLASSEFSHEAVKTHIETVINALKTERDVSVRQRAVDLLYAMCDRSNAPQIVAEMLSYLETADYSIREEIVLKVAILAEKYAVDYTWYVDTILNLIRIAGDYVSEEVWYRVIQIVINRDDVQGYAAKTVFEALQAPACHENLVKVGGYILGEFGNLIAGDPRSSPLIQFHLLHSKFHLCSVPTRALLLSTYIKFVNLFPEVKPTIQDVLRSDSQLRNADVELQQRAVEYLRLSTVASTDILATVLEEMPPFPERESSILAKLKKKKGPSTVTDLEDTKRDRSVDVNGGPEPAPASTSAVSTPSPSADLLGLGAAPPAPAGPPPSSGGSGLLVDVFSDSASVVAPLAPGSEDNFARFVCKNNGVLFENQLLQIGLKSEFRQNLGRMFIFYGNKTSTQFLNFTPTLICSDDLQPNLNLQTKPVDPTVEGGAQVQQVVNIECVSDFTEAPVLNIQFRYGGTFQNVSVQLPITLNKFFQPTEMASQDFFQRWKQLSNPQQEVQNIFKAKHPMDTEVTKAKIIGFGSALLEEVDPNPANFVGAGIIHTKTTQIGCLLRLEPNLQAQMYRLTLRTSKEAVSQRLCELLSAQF
ATXN2, Q99700, UniProt Q99700, whole entry: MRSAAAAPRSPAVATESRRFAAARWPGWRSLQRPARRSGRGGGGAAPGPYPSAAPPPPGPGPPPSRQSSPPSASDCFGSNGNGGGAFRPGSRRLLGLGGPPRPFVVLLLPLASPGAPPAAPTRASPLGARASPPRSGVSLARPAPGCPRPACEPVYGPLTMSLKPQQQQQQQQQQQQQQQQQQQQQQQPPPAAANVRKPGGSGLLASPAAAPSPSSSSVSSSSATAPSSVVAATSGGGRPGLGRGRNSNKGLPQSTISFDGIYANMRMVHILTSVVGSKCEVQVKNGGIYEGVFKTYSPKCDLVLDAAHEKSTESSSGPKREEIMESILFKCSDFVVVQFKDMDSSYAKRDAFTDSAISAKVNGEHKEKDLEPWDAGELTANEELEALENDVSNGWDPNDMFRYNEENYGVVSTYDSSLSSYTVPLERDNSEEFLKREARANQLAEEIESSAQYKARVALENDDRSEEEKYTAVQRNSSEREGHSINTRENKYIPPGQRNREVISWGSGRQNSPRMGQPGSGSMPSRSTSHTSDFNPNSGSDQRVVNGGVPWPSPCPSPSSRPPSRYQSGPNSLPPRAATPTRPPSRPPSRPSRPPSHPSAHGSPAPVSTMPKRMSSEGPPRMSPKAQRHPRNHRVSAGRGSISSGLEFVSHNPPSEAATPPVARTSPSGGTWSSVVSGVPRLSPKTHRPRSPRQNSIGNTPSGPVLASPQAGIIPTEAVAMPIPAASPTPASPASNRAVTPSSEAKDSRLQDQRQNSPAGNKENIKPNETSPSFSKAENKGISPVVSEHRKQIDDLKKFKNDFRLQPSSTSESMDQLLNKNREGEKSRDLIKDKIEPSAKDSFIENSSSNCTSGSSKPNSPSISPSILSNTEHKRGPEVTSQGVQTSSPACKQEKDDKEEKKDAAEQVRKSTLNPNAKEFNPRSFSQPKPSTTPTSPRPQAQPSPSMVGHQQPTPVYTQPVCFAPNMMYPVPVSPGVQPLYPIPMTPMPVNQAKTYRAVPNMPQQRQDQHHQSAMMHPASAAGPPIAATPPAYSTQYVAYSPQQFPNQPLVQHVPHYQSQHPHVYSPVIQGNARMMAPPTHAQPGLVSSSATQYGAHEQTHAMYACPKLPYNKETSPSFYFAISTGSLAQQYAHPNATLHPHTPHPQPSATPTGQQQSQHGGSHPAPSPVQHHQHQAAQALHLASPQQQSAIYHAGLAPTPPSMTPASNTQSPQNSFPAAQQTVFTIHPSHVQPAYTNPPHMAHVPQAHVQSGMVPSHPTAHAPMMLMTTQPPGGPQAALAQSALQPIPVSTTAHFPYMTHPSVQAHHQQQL
CCAR2, Q8N163, UniProt Q8N163, whole entry: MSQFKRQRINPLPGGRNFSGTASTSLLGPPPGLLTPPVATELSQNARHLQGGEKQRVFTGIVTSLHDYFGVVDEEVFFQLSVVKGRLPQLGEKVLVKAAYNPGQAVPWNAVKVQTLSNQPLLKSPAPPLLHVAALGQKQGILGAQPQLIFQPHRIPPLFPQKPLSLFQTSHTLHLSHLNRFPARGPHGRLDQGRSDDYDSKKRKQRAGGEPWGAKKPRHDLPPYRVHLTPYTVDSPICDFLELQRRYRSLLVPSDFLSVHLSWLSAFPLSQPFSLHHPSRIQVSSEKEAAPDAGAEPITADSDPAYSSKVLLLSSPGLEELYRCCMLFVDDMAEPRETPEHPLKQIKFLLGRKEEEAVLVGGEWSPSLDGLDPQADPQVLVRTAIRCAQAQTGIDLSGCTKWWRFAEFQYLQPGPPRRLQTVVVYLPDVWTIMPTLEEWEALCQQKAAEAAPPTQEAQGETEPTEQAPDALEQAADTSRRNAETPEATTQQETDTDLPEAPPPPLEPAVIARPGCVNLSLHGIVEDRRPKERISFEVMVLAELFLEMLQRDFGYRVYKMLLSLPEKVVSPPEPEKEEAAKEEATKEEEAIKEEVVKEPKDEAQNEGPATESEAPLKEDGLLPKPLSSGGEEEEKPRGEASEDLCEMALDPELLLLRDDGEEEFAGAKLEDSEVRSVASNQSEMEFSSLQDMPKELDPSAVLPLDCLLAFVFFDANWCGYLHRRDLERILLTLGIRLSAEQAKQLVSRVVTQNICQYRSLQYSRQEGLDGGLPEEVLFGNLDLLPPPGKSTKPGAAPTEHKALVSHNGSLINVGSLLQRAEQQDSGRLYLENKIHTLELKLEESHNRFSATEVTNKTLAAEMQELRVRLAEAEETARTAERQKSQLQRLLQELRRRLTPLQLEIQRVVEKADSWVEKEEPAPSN
CHMP2B, Q9UQN3, UniProt Q9UQN3, whole entry: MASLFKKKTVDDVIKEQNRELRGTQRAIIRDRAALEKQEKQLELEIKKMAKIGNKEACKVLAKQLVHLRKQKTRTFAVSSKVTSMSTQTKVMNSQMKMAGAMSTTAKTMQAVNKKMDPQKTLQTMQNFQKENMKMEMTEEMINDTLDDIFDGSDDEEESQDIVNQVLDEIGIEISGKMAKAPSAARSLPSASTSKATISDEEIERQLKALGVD
COA4, Q9NYJ1, UniProt Q9NYJ1, whole entry: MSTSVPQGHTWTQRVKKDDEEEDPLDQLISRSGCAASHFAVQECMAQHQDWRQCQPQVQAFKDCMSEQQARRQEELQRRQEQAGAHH
CPSF6, Q16630, UniProt Q16630, whole entry: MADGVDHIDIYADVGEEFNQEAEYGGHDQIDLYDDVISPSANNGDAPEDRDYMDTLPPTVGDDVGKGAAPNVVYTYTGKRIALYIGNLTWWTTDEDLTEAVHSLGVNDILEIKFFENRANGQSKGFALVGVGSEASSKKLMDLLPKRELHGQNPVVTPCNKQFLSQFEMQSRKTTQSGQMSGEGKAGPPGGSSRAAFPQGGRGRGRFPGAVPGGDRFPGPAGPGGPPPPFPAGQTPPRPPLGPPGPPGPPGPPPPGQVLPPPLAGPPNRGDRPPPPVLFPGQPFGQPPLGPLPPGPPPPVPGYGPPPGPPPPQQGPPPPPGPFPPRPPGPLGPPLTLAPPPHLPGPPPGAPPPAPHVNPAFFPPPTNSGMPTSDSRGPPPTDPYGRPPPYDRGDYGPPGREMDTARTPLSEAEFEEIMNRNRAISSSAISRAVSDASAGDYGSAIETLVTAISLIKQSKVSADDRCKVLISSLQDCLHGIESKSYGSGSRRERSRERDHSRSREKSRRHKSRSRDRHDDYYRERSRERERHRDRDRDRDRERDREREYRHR

Columns and labels:
Test in all cases: PRISMA enrichment of interactor (LFQ) in peptide spot vs all other peptide spots (log2 fold change); higher = stronger / more specific binding of the interactor to the peptide
ACAA1, P09110 = target: ACAA1, P09110
Description: (§1)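 PRISMA: 221 full-length sORF-encoded peptides (3-15 aa), plus SOS1/GLUT1 control peptides, were spot-synthesized on cellulose membranes in triplicate. Membranes were incubated with HEK293T lysate, and bound proteins were identified by LC-MS/MS with LFQ. Enrichment is the log2 fold change versus all other peptide spots; only significant interactors are listed (cutoff c=6, x0=2.8).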

ACAT1, P24752 = target: ACAT1, P24752
Description: as §1

ACOT13, Q9NPJ3 = target: ACOT13, Q9NPJ3
Description: as §1

ACOT7, O00154 = target: ACOT7, O00154
Description: as §1

AIP, O00170 = target: AIP, O00170
Description: as §1

ALKBH2, Q6NS38 = target: ALKBH2, Q6NS38
Description: as §1

ALKBH5, Q6P6C2 = target: ALKBH5, Q6P6C2
Description: as §1

AMOT, Q4VCS5 = target: AMOT, Q4VCS5
Description: as §1

ANXA7, P20073 = target: ANXA7, P20073
Description: as §1

AP1B1, Q10567 = target: AP1B1, Q10567
Description: as §1

AP1G1, O43747 = target: AP1G1, O43747
Description: as §1

AP1M1, Q9BXS5 = target: AP1M1, Q9BXS5
Description: as §1

AP2A1, O95782 = target: AP2A1, O95782
Description: as §1

AP2A2, O94973 = target: AP2A2, O94973
Description: as §1

AP2B1, P63010 = target: AP2B1, P63010
Description: as §1

AP2M1, Q96CW1 = target: AP2M1, Q96CW1
Description: as §1

AP2S1, P53680 = target: AP2S1, P53680
Description: as §1

ARHGEF2, Q92974 = target: ARHGEF2, Q92974
Description: as §1

ATXN2, Q99700 = target: ATXN2, Q99700
Description: as §1

ATXN2L, Q8WWM7 = target: ATXN2L, Q8WWM7
Description: as §1

BAIAP2, Q9UQB8 = target: BAIAP2, Q9UQB8
Description: as §1

BCKDK, O14874 = target: BCKDK, O14874
Description: as §1

BOP1, Q14137 = target: BOP1, Q14137
Description: as §1

C19orf53, Q9UNZ5 = target: C19orf53, Q9UNZ5
Description: as §1

CBX8, Q9HC52 = target: CBX8, Q9HC52
Description: as §1

CC2D1A, Q6P1N0 = target: CC2D1A, Q6P1N0
Description: as §1

CCAR2, Q8N163 = target: CCAR2, Q8N163
Description: as §1

CCDC137, Q6PK04 = target: CCDC137, Q6PK04
Description: as §1

CCDC58, Q4VC31 = target: CCDC58, Q4VC31
Description: as §1

CCDC59, Q9P031 = target: CCDC59, Q9P031
Description: as §1

CDC73, Q6P1J9 = target: CDC73, Q6P1J9
Description: as §1

CHMP2A, O43633 = target: CHMP2A, O43633
Description: as §1

CHMP2B, Q9UQN3 = target: CHMP2B, Q9UQN3
Description: as §1

CHMP5, Q9NZZ3 = target: CHMP5, Q9NZZ3
Description: as §1

CKMT1A, P12532 = target: CKMT1A, P12532
Description: as §1

COA4, Q9NYJ1 = target: COA4, Q9NYJ1
Description: as §1

COA7, Q96BR5 = target: COA7, Q96BR5
Description: as §1

CPSF1, Q10570 = target: CPSF1, Q10570
Description: as §1

CPSF6, Q16630 = target: CPSF6, Q16630
Description: as §1

CPSF7, Q8N684 = target: CPSF7, Q8N684
Description: as §1

CSNK1A1, P48729 = target: CSNK1A1, P48729
Description: as §1

CSNK1E, P49674 = target: CSNK1E, P49674
Description: as §1

CSRP2, Q16527 = target: CSRP2, Q16527
Description: as §1

CSTF1, Q05048 = target: CSTF1, Q05048
Description: as §1

CSTF2, P33240 = target: CSTF2, P33240
Description: as §1

Binder: MVDNFYF [ASPN]
- PRISMA enrichment of interactor (log2) (ACAA1, P09110): 7.59
- PRISMA enrichment of interactor (log2) (ACAT1, P24752): 5.18
- PRISMA enrichment of interactor (log2) (ACOT13, Q9NPJ3): 3.97
- PRISMA enrichment of interactor (log2) (ACOT7, O00154): 5.21
- PRISMA enrichment of interactor (log2) (AIP, O00170): 4.43
- PRISMA enrichment of interactor (log2) (ALKBH2, Q6NS38): 4.38
- PRISMA enrichment of interactor (log2) (ALKBH5, Q6P6C2): 4.13
- PRISMA enrichment of interactor (log2) (AMOT, Q4VCS5): 5.76
- PRISMA enrichment of interactor (log2) (ANXA7, P20073): 4.67
- PRISMA enrichment of interactor (log2) (AP1B1, Q10567): 6.58
- PRISMA enrichment of interactor (log2) (AP1G1, O43747): 5.61
- PRISMA enrichment of interactor (log2) (AP1M1, Q9BXS5): 6.76
- PRISMA enrichment of interactor (log2) (AP2A1, O95782): 8.91
- PRISMA enrichment of interactor (log2) (AP2A2, O94973): 8.31
- PRISMA enrichment of interactor (log2) (AP2B1, P63010): 8.51
- PRISMA enrichment of interactor (log2) (AP2M1, Q96CW1): 7.87
- PRISMA enrichment of interactor (log2) (AP2S1, P53680): 5.2
- PRISMA enrichment of interactor (log2) (ARHGEF2, Q92974): 4
- PRISMA enrichment of interactor (log2) (ATXN2, Q99700): 5.94
- PRISMA enrichment of interactor (log2) (ATXN2L, Q8WWM7): 6.65
- PRISMA enrichment of interactor (log2) (BAIAP2, Q9UQB8): 5.96
- PRISMA enrichment of interactor (log2) (BCKDK, O14874): 6.49
- PRISMA enrichment of interactor (log2) (BOP1, Q14137): 4.6
- PRISMA enrichment of interactor (log2) (C19orf53, Q9UNZ5): 5.73
- PRISMA enrichment of interactor (log2) (CBX8, Q9HC52): 4.34
- PRISMA enrichment of interactor (log2) (CC2D1A, Q6P1N0): 8.93
- PRISMA enrichment of interactor (log2) (CCAR2, Q8N163): 4.94
- PRISMA enrichment of interactor (log2) (CCDC137, Q6PK04): 6.09
- PRISMA enrichment of interactor (log2) (CCDC58, Q4VC31): 5.42
- PRISMA enrichment of interactor (log2) (CCDC59, Q9P031): 5.25
- PRISMA enrichment of interactor (log2) (CDC73, Q6P1J9): 4.89
- PRISMA enrichment of interactor (log2) (CHMP2A, O43633): 7.02
- PRISMA enrichment of interactor (log2) (CHMP2B, Q9UQN3): 5.35
- PRISMA enrichment of interactor (log2) (CHMP5, Q9NZZ3): 5.76
- PRISMA enrichment of interactor (log2) (CKMT1A, P12532): 5.41
- PRISMA enrichment of interactor (log2) (COA4, Q9NYJ1): 5.2
- PRISMA enrichment of interactor (log2) (COA7, Q96BR5): 7.63
- PRISMA enrichment of interactor (log2) (CPSF1, Q10570): 3.86
- PRISMA enrichment of interactor (log2) (CPSF6, Q16630): 4.89
- PRISMA enrichment of interactor (log2) (CPSF7, Q8N684): 7.34
- PRISMA enrichment of interactor (log2) (CSNK1A1, P48729): 6.67
- PRISMA enrichment of interactor (log2) (CSNK1E, P49674): 7.09
- PRISMA enrichment of interactor (log2) (CSRP2, Q16527): 6.89
- PRISMA enrichment of interactor (log2) (CSTF1, Q05048): 5.61
- PRISMA enrichment of interactor (log2) (CSTF2, P33240): 4.76
